Data from the supplement of paper PMC8728848.
The list shows a part of the results.

Legend:
Experiment in all cases: glycan array binding signal (z-score within array); higher = stronger binding
Conditions in all cases: glycan notation: IUPAC condensed, linker removed
[1] = molecular target: Neu5Ac(a2-3)Gal(b1-4)GlcNAc(b1-3)Gal(b1-4)GlcNAc(b1-2)Man(a1-3)[Neu5Ac(a2-3)Gal(b1-4)GlcNAc(b1-3)Gal(b1-4)GlcNAc(b1-2)Man(a1-6)]Man(b1-4)GlcNAc(b1-4)GlcNAc
Summary of the method: (§1)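 Glycan array data were curated from 3228 arrays in the Consortium for Functional Glycomics database and kept only where the protein sequence was available. Glycan names were converted to IUPAC-condensed notation, and columns mapping to the same glycan were averaged. The binding signal is a within-array Z-score, averaged across arrays of the same protein sequence at different concentrations or buffers and across linkers. Negative Z-scores can be read as non-binding.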

[2] = molecular target: Neu5Ac(a2-3)Gal(b1-4)GlcNAc(b1-3)Gal(b1-4)GlcNAc(b1-3)Gal(b1-4)GlcNAc
Summary of the method: as §1

[3] = molecular target: Neu5Ac(a2-3)Gal(b1-4)GlcNAc(b1-3)Gal(b1-4)GlcNAc(b1-3)Gal(b1-4)GlcNAc(b1-2)Man(a1-3)[Neu5Ac(a2-3)Gal(b1-4)GlcNAc(b1-3)Gal(b1-4)GlcNAc(b1-3)Gal(b1-4)GlcNAc(b1-2)Man(a1-6)]GalNAc
Summary of the method: as §1

[4] = molecular target: Neu5Ac(a2-3)Gal(b1-4)GlcNAc(b1-3)Gal(b1-4)GlcNAc(b1-3)GalNAc
Summary of the method: as §1

[5] = molecular target: Neu5Ac(a2-3)Gal(b1-4)GlcNAc(b1-3)Gal(b1-4)GlcNAc(b1-3)[Neu5Ac(a2-3)Gal(b1-4)GlcNAc(b1-3)Gal(b1-4)GlcNAc(b1-6)]GalNAc
Summary of the method: as §1

[6] = molecular target: Neu5Ac(a2-3)Gal(b1-4)GlcNAc(b1-3)Gal(b1-4)GlcNAc(b1-6)[Gal(b1-3)]GalNAc
Summary of the method: as §1

[7] = molecular target: Neu5Ac(a2-3)Gal(b1-4)GlcNAc(b1-3)Gal(b1-4)[Fuc(a1-3)]GlcNAc
Summary of the method: as §1

[8] = molecular target: Neu5Ac(a2-3)Gal(b1-4)GlcNAc(b1-3)GalNAc
Summary of the method: as §1

[9] = molecular target: Neu5Ac(a2-3)Gal(b1-4)GlcNAc(b1-3)[Neu5Ac(a2-3)Gal(b1-4)GlcNAc(b1-6)]GalNAc
Summary of the method: as §1

[10] = molecular target: Neu5Ac(a2-3)Gal(b1-4)GlcNAc(b1-6)GalNAc
Summary of the method: as §1

[11] = molecular target: Neu5Ac(a2-3)Gal(b1-4)GlcNAc(b1-6)[Gal(b1-3)]GalNAc
Summary of the method: as §1

[12] = molecular target: Neu5Ac(a2-3)Gal(b1-4)GlcNAc(b1-6)[Neu5Ac(a2-3)Gal(b1-3)]GalNAc
Summary of the method: as §1

[13] = molecular target: Neu5Ac(a2-3)Gal(b1-4)GlcNAc6S
Summary of the method: as §1

[14] = molecular target: Neu5Ac(a2-3)Gal(b1-4)[Fuc(a1-3)]GlcNAc
Summary of the method: as §1

[15] = molecular target: Neu5Ac(a2-3)Gal(b1-4)[Fuc(a1-3)]GlcNAc(b1-2)Man
Summary of the method: as §1

[16] = molecular target: Neu5Ac(a2-3)Gal(b1-4)[Fuc(a1-3)]GlcNAc(b1-3)Gal
Summary of the method: as §1

[17] = molecular target: Neu5Ac(a2-3)Gal(b1-4)[Fuc(a1-3)]GlcNAc(b1-3)Gal(b1-4)GlcNAc
Summary of the method: as §1

[18] = molecular target: Neu5Ac(a2-3)Gal(b1-4)[Fuc(a1-3)]GlcNAc(b1-3)Gal(b1-4)[Fuc(a1-3)]GlcNAc(b1-3)Gal(b1-4)[Fuc(a1-3)]GlcNAc
Summary of the method: as §1

[19] = molecular target: Neu5Ac(a2-3)Gal(b1-4)[Fuc(a1-3)]GlcNAc(b1-3)GalNAc
Summary of the method: as §1

[20] = molecular target: Neu5Ac(a2-3)Gal(b1-4)[Fuc(a1-3)]GlcNAc(b1-6)[Gal(b1-3)]GalNAc
Summary of the method: as §1

[21] = molecular target: Neu5Ac(a2-3)Gal(b1-4)[Fuc(a1-3)]GlcNAc(b1-6)[Neu5Ac(a2-3)Gal(b1-3)]GalNAc
Summary of the method: as §1

[22] = molecular target: Neu5Ac(a2-3)Gal(b1-4)[Fuc(a1-3)]GlcNAc6S
Summary of the method: as §1

[23] = molecular target: Neu5Ac(a2-3)Gal6S(b1-4)GlcNAc
Summary of the method: as §1

[24] = molecular target: Neu5Ac(a2-3)Gal6S(b1-4)[Fuc(a1-3)]GlcNAc
Summary of the method: as §1

Neu5Ac(a2-3)GalNAc = molecular target: Neu5Ac(a2-3)GalNAc
Summary of the method: as §1

[25] = molecular target: Neu5Ac(a2-3)GalNAc(b1-4)GlcNAc
Summary of the method: as §1

[26] = molecular target: Neu5Ac(a2-3)[GalNAc(b1-4)]Gal(b1-4)Glc
Summary of the method: as §1

[27] = molecular target: Neu5Ac(a2-3)[GalNAc(b1-4)]Gal(b1-4)GlcNAc
Summary of the method: as §1

[28] = molecular target: Neu5Ac(a2-3)[GalNAc(b1-4)]Gal(b1-4)GlcNAc(b1-3)GalNAc
Summary of the method: as §1

[29] = molecular target: Neu5Ac(a2-3)[Neu5Ac(a2-6)]GalNAc
Summary of the method: as §1

Neu5Ac(a2-6)Gal = molecular target: Neu5Ac(a2-6)Gal
Summary of the method: as §1

[30] = molecular target: Neu5Ac(a2-6)Gal(b1-3)GlcNAc(b1-3)[Gal(b1-4)GlcNAc(b1-6)]Gal(b1-4)Glc
Summary of the method: as §1

Neu5Ac(a2-6)Gal(b1-4)Glc = molecular target: Neu5Ac(a2-6)Gal(b1-4)Glc
Summary of the method: as §1

[31] = molecular target: Neu5Ac(a2-6)Gal(b1-4)GlcNAc
Summary of the method: as §1

[32] = molecular target: Neu5Ac(a2-6)Gal(b1-4)GlcNAc(b1-2)Man
Summary of the method: as §1

[33] = molecular target: Neu5Ac(a2-6)Gal(b1-4)GlcNAc(b1-2)Man(a1-3)Man(b1-4)GlcNAc(b1-4)GlcNAc
Summary of the method: as §1

[34] = molecular target: Neu5Ac(a2-6)Gal(b1-4)GlcNAc(b1-2)Man(a1-3)[Gal(b1-4)GlcNAc(b1-2)Man(a1-6)]Man(b1-4)GlcNAc(b1-4)GlcNAc
Summary of the method: as §1

[35] = molecular target: Neu5Ac(a2-6)Gal(b1-4)GlcNAc(b1-2)Man(a1-3)[GlcNAc(b1-2)Man(a1-6)]Man(b1-4)GlcNAc(b1-4)GlcNAc
Summary of the method: as §1

B1: SabA (Helicobacter pylori) (protein)
chain: MGSSHHHHHHSSGLVPRGSHMENLYFQGEDNGFFVSAGYQIGEAVQMVKNTGELKNLNEKYEQLSQYLNQVASLKQSIQNANNIELVNSSLNYLKSFTNNNYNSTTQSPIFNAVQAVITSVLGFWSLYAGNYFTFFVGKKVGDSGQPASVQGNPPFKTIIENCSGIENCAMDQTTYDKMKKLAEDLQAAQTNSATKGNNLCALSGCAATDSTSNPPNSTVSNALNLAQQLMDLIANTKTAMMWKNIVISGVSNTSGAITSTNYPTQYAVFNNIKAMIPILQQAVTLSQSNHTLSASLQAQATGSQTNPKFAKDIYTFAQNQKQVISYAQDIFNLFNSIPAEQYKYLEKAYLKIPNAGSTPTNPYRQVVNLNQEVQTIKNNVSYYGNRVDAALSVARDVYNLKSNQAEIVTAYNDAKTLSEEISKLPHNQVNTKDIVTLPYDKNAPAAGQSNYQINPEQQSNLNQALAAMSNNPFKKVGMISSQNNNGA
glycan array binding signal (z-score) [1]: -0.729 | glycan array binding signal (z-score) [2]: 0.051 | glycan array binding signal (z-score) [3]: 1.25 | glycan array binding signal (z-score) [4]: -0.287 | glycan array binding signal (z-score) [5]: -0.187 | glycan array binding signal (z-score) [6]: -1.37 | glycan array binding signal (z-score) [7]: -0.156 | glycan array binding signal (z-score) [8]: -0.045 | glycan array binding signal (z-score) [9]: -0.509 | glycan array binding signal (z-score) [10]: -0.414 | glycan array binding signal (z-score) [11]: -0.438 | glycan array binding signal (z-score) [12]: -0.735 | glycan array binding signal (z-score) [13]: 0.311 | glycan array binding signal (z-score) [14]: -0.702 | glycan array binding signal (z-score) [15]: -0.806 | glycan array binding signal (z-score) [16]: 0.06 | glycan array binding signal (z-score) [17]: 0.139 | glycan array binding signal (z-score) [18]: -0.257 | glycan array binding signal (z-score) [19]: 1.3 | glycan array binding signal (z-score) [20]: 0.002 | glycan array binding signal (z-score) [21]: 0.408 | glycan array binding signal (z-score) [22]: -0.545 | glycan array binding signal (z-score) [23]: 0.251 | glycan array binding signal (z-score) [24]: -0.913 | glycan array binding signal (z-score) (Neu5Ac(a2-3)GalNAc): 0.507 | glycan array binding signal (z-score) [25]: -0.739 | glycan array binding signal (z-score) [26]: -0.8 | glycan array binding signal (z-score) [27]: -0.949 | glycan array binding signal (z-score) [28]: 0.507 | glycan array binding signal (z-score) [29]: -0.38 | glycan array binding signal (z-score) (Neu5Ac(a2-6)Gal): 0.027 | glycan array binding signal (z-score) [30]: -0.762 | glycan array binding signal (z-score) (Neu5Ac(a2-6)Gal(b1-4)Glc): -0.048 | glycan array binding signal (z-score) [31]: -0.341 | glycan array binding signal (z-score) [32]: -0.826 | glycan array binding signal (z-score) [33]: -0.111 | glycan array binding signal (z-score) [34]: -0.079 | glycan array binding signal (z-score) [35]: -0.593
